Test results: PubChem BioAssay AID2685 (National Center for Advancing Translational Sciences (NCATS), 2010)
The list shows a part of the results. The main result of the screen is listed elsewhere. These columns were measured beside it and carry no call. Compounds called inactive in the main read-out are mostly missing here. Potencies come from curve fits of mixed quality, noted in brackets.

Test: qHTS Assay for Lipid Storage Modulators in Drosophila S3 Cells;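 for cell number change: cells counted by Cell Tracker Red CMTPX staining in the red channel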
Details: BODIPY lipid droplet fluorescence, 18-24 h; for cell number change: measured here: cell count max response, cells fed with added oleic acid
How it was run: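 Drosophila S3 cells loaded with oleic acid (400 uM, as added) and compounds at several concentrations; lipid droplets imaged by 488-nm laser-scanning cytometry, 500–530 nm intensity and object ratio to cell channel. Percent activity normalized to 20 uM Triacsin C.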

[1] = measured here: lipid fluorescence (Fed channel) AC50, cells fed with added oleic acid
[2] = measured here: cell number channel AC50, cells fed with added oleic acid

SMILES: O=C(Nc1cccc(NS(=O)(=O)c2ccc(S(=O)(=O)NC3CC3)cc2)c1)c1ccccn1
- cell number change: -13.5%
- AC50 [1]: 0.461 µM [rising, full curve]

SMILES: Cc1cc(NC(=O)CC2CCCC2)n(-c2nc3ccccc3[nH]2)n1
- cell number change: -13.4%
- AC50 [1]: 1.84 µM [rising, partial curve]

SMILES: COc1cc2c(cc1OC)C(C)N(C(=O)Nc1ccccc1)CC2 (configuration not stated)
- cell number change: -22.8%
- AC50 [1]: 29.1 µM [falling, single point]

SMILES: CC(CNS(=O)(=O)c1ccc2c(c1)CC(=O)N2C)c1ccccc1 (configuration not stated)
- cell number change: 23.7%

SMILES: O=C(CSc1nnc(CCc2ccccc2)n1-c1ccc(Cl)cc1)NCc1ccccc1
- cell number change: -48%
- AC50 [2]: 2.59 µM [rising, single point]

SMILES: CC(=O)CSc1nc2c(c(=O)[nH]c(=O)n2C)n1Cc1ccccc1Cl
- cell number change: 22%
- AC50 [1]: 29.1 µM [rising, single point]

SMILES: Nc1c(S(=O)(=O)c2cccc(Cl)c2)c2nc3ccccc3nc2n1CCN1CCOCC1
- cell number change: 23.9%
- AC50 [2]: 0.461 µM [rising, full curve]

SMILES: COC(=O)c1cccc(NC2CC(=O)N(c3ccc(OC)c(OC)c3)C2=O)c1 (configuration not stated)
- cell number change: -4.23%

SMILES: O=C(O)CSc1nc2ccc(C(=O)c3ccccc3)cc2[nH]1
- cell number change: -3.51%
- AC50 [1]: 29.1 µM [rising, single point]

SMILES: O=C(COC(=O)C1CC1)Nc1ccc([N+](=O)[O-])cc1C(F)(F)F
- cell number change: -6.59%
- AC50 [1]: 29.1 µM [falling, single point]

SMILES: O=C(/C=N/O)Nc1ccc(F)cc1
- cell number change: -2.11%
- AC50 [1]: 29.1 µM [falling, single point]

SMILES: Cc1cc(NS(=O)(=O)c2ccc(NS(=O)(=O)c3ccc(CC(C)C)cc3)cc2)nc(C)n1
- cell number change: -1.92%
- AC50 [1]: 0.562 µM [falling, full curve, poor fit]

SMILES: O=C(NC(=S)N1CCCC(C(F)(F)F)C1)c1ccc(F)cc1 (configuration not stated)
- cell number change: 20.6%
- AC50 [2]: 0.00461 µM [rising, full curve, poor fit]

SMILES: O=C(O)C1C2C=CC3(CN(C4CCCC4)C(=O)C13)O2 (configuration not stated)
- cell number change: 8.29%

SMILES: CCOC(=O)c1cc(-c2ccc(C)cc2)nc2nc(SC)[nH]c(=O)c12
- cell number change: 15.3%
- AC50 [1]: 5.17 µM [rising, partial curve]

SMILES: CN(C#N)c1nc(Cl)nc(Nc2cccc(Cl)c2)n1
- cell number change: -14.3%

SMILES: CC(NC(=O)c1cccc(C(F)(F)F)c1)C(c1ccccc1)N1CCOCC1 (configuration not stated)
- cell number change: 47.4%
- AC50 [1]: 7.31 µM [rising, partial curve]

SMILES: CC(=O)c1sc(NC(=O)c2ccc(F)cc2)nc1-c1ccccc1
- cell number change: -30.2%
- AC50 [2]: 0.82 µM [falling, full curve]
- AC50 [1]: 0.731 µM [falling, single point]

SMILES: O=C(CCOc1ccccc1)Nc1ccnn1C1CCN(Cc2ccc(O)cc2)CC1
- cell number change: 5.28%
- AC50 [1]: 32.6 µM [falling, partial curve, poor fit]

SMILES: CCCC(=O)N1CC2(C)CN(C(=O)CCC)CC(CCC)(C1)C2=O
- cell number change: -39.6%
- AC50 [2]: 14.6 µM [falling, partial curve]
- AC50 [1]: 29.1 µM [falling, single point]

SMILES: N#CC1(C#N)COC23CCCCC2C1(C#N)C(=N)O3 (configuration not stated)
- cell number change: 24.6%
- AC50 [1]: 0.651 µM [rising, single point]

SMILES: CS(=O)(=O)c1ccc(C(=O)OCC(=O)NC2CCS(=O)(=O)C2)cc1[N+](=O)[O-] (configuration not stated)
- cell number change: 11.8%
- AC50 [1]: 6.51 µM [falling, single point]

SMILES: CN(Cc1ccccc1)C(=O)c1ccc(NC(=O)c2ccccc2)cc1
- cell number change: -13.2%
- AC50 [1]: 1.46 µM [rising, partial curve]

SMILES: Cc1c(C(C)(C)C)s/c(=N/S(=O)(=O)c2ccccc2)n1C
- cell number change: -38.8%

SMILES: O=C(OCC(=O)N1CCCC1=O)c1nc(Cl)ccc1Cl
- cell number change: -12%
- AC50 [1]: 0.366 µM [falling, full curve, poor fit]

SMILES: CC(=O)c1ccc(S(=O)(=O)N2CCC3(CC2)OCCO3)cc1
- AC50 [2]: 6.51 µM [rising, single point]
- AC50 [1]: 25.9 µM [falling, single point]

SMILES: Cc1cccc(OCc2nnc(SCC(=O)N(c3ccccc3)C3CCS(=O)(=O)C3)o2)c1 (configuration not stated)
- cell number change: -19.1%

SMILES: CCc1ccccc1NC(=O)Nc1ccsc1C(=O)OC
- cell number change: -13.9%

SMILES: CC1CCC2(CC1)NC(=O)N(CC(=O)N1CCN(S(=O)(=O)c3ccc4c(c3)CCC4)CC1)C2=O (configuration not stated)
- cell number change: 11.8%
- AC50 [1]: 0.116 µM [falling, full curve, poor fit]

SMILES: COc1cc(OC)cc(C(=O)NCCc2cnc[nH]2)c1
- cell number change: 47.9%
- AC50 [2]: 29.1 µM [rising, single point]
- AC50 [1]: 29.1 µM [rising, single point]

SMILES: Cc1nn(-c2ccccc2)c(C)c1CN
- cell number change: 5.92%

SMILES: COc1ccc(-n2c(-c3ccco3)nc3c(cnn3-c3ccccc3C)c2=O)cc1
- cell number change: 17%
- AC50 [1]: 0.00259 µM [rising, full curve, poor fit]

SMILES: CCOC(=O)c1nnc(-c2ccc(C)cc2)nc1N1CCSCC1
- cell number change: -27.9%
- AC50 [2]: 4.11 µM [falling, single point]

SMILES: COc1ccc(CN2CCN(C(=O)Cn3c(=O)oc4cc(Cl)ccc43)CC2)c(OC)c1OC
- cell number change: 17.6%

SMILES: O=[N+]([O-])c1ccc2c(c1)C=C1CCCCC1(N1CCCC1)O2 (configuration not stated)
- cell number change: -3.85%
- AC50 [1]: 29.1 µM [falling, single point]

SMILES: COc1ccc(S(=O)(=O)N2CCN(S(=O)(=O)c3ccc4c(c3)OCCO4)CC2)cc1
- cell number change: 26.4%
- AC50 [2]: 4.11 µM [rising, full curve, poor fit]

SMILES: CCNc1cc2oc(=O)c(CN3CCOCC3)c(C)c2cc1C
- cell number change: -13%

SMILES: CCc1csc(CCNC(=O)C2CCC(=O)N(Cc3ccccc3F)C2)n1 (configuration not stated)
- cell number change: -14.4%
- AC50 [1]: 6.51 µM [falling, single point]

SMILES: Cc1ccc(NC(=O)CCN2C(=O)NC(C)(C)C2=O)cc1F
- cell number change: -34.5%

SMILES: CCOc1ccc(NC(=O)CC2C(=O)N(C)C(=S)N2CCCc2ccccc2)cc1 (configuration not stated)
- cell number change: 21.6%
- AC50 [1]: 7.31 µM [rising, partial curve]

SMILES: CCOC(=O)c1cccc(NC(=O)CSc2nc3cccnc3n2C)c1
- AC50 [2]: 1.84 µM [rising, partial curve]
- AC50 [1]: 1.84 µM [rising, partial curve]

SMILES: O=C(NCC1CCCO1)c1ccc(Oc2ccc([N+](=O)[O-])cc2Cl)cc1 (configuration not stated)
- cell number change: 26.1%
- AC50 [1]: 16.4 µM [rising, partial curve]

SMILES: CC(C)NC(=O)/C(C#N)=C/c1cccc(NC(=O)c2ccccc2Cl)c1
- cell number change: -32.6%
- AC50 [2]: 32.6 µM [falling, single point]
- AC50 [1]: 8.2 µM [falling, partial curve, poor fit]

SMILES: c1ccc(N2N=C(c3cccs3)CC2c2ccco2)cc1 (configuration not stated)
- cell number change: 8.13%
- AC50 [1]: 7.31 µM [rising, partial curve]

SMILES: O=C(NCCc1ccc(C(F)(F)F)cc1)c1ccc2c(c1)OCO2
- cell number change: -8.9%
- AC50 [1]: 0.103 µM [falling, full curve, poor fit]

SMILES: CCc1nc(SCC(=O)c2cccc([N+](=O)[O-])c2)n[nH]1
- cell number change: -6.66%

SMILES: Cc1ccc(NC(=O)CSC2=NN3CCCC(=O)N=C3S2)cc1Cl
- cell number change: 170%
- AC50 [2]: 18.4 µM [rising, partial curve]

SMILES: CSc1ccccc1OCc1cc(C(=O)N(C)Cc2ccc(C)o2)no1
- cell number change: -29%
- AC50 [1]: 20.6 µM [falling, single point]

SMILES: COc1cc(C2NCC(c3ccc(Cl)cc3Cl)c3c2[nH]c2ccccc32)cc(OC)c1OC (configuration not stated)
- cell number change: -36.3%
- AC50 [2]: 2.91 µM [falling, full curve]
- AC50 [1]: 3.66 µM [rising, full curve]

SMILES: CCOC(=O)C(C)Sc1ncc(-c2ccccc2)cn1 (configuration not stated)
- cell number change: -6.13%

SMILES: CN(C(=O)c1ccc(NC(=O)Cc2cccc([N+](=O)[O-])c2)cc1)C1CC1
- cell number change: -39%
- AC50 [2]: 9.2 µM [falling, single point]
- AC50 [1]: 25.9 µM [falling, single point]

SMILES: CN(C(=O)CSc1nnc(-c2ccco2)n1Cc1ccccc1)C1CCS(=O)(=O)C1 (configuration not stated)
- cell number change: -15%
- AC50 [1]: 1.64 µM [falling, partial curve]

SMILES: COC(=O)c1cc(=O)n(Cc2ccco2)c(=Nc2ccc(F)c(Cl)c2)s1
- cell number change: 3.87%

SMILES: Cc1ccc2nc(SCc3nnc(-c4ccccc4Br)o3)[nH]c2c1
- cell number change: -19.4%
- AC50 [1]: 16.4 µM [falling, single point]

SMILES: NC(=O)c1ccc(C2SCC(=O)N2Cc2ccccc2)cc1 (configuration not stated)
- cell number change: -31.6%
- AC50 [2]: 25.9 µM [falling, single point]

SMILES: Cc1ccc(NC(=O)C2CCCCC2C(=O)O)cc1C (configuration not stated)
- cell number change: -0.812%
- AC50 [1]: 0.461 µM [falling, full curve, poor fit]

SMILES: CC(C)c1ccc(NC(=O)C2CCCN2S(=O)(=O)c2ccccc2F)cc1 (configuration not stated)
- cell number change: -22.9%
- AC50 [2]: 1.84 µM [falling, partial curve, poor fit]
- AC50 [1]: 2.06 µM [falling, partial curve, poor fit]

SMILES: COc1ccc(NC(=O)c2ccccc2-c2ccccc2)c(C)c1
- cell number change: 122%
- AC50 [1]: 4.11 µM [falling, partial curve, poor fit]

SMILES: Cc1nnc(Nc2ccc(S(N)(=O)=O)cc2)c2ccccc12
- cell number change: 13.5%
- AC50 [1]: 16.4 µM [rising, single point]

SMILES: O=C(Cn1ccc(=O)[nH]c1=O)NCCO
- cell number change: -15.8%
- AC50 [1]: 3.26 µM [falling, partial curve, poor fit]

SMILES: COc1cccc(CC2(CO)CCN(CC3=CC[C@H]4C[C@@H]3C4(C)C)CC2)c1
- cell number change: 17.3%
- AC50 [1]: 5.17 µM [rising, full curve, poor fit]

SMILES: O=C(Cn1c(S(=O)(=O)Cc2ccccc2)nc2ccccc21)N1CCCCC1
- cell number change: -15.3%
- AC50 [1]: 32.6 µM [falling, single point]
